The values that follow come from patent publication US6528068B1, “Cosmetic composition containing N-acyl neutral amino acid esters of lower alcohols” (Ajinomoto Co., Inc., priority 1997, dated 2003).

A short description of data set [1]: Examination of clean feeling and the like of inorganic pigment compositions. Format: in vivo. Particulars: 25% by weight oily material, 25% TiO2, 50% liquid paraffin; five panelists.
The nature of data set [2]: Organoleptic evaluation of the feeling of neat oily materials by five panelists. It counts as in vivo. The settings on record: neat oily material (solids melted at 45° C.) on back of hand.
Data set [3] can be described thus: Hair conditioning property after dipping hair in an ethanol solution of the oily material. Particulars: hair (2.5 g) dipped 2 minutes in 0.05 weight % ethanol solution of the oily material; five panelists.
A short description of data set [4]: Organoleptic evaluation of a milky lotion containing each oily material. Particulars: milky lotion with 5.0 % by weight oily material, pH 6.5; five panelists; liquid paraffin = 0 (blank). It counts as in vivo.

Some entries repeat one wording, which the source may state once for all of them.

Regarding `CCCCCCCCCCCC(=O)N[C@@H](CCC(=O)OCC(CCCCCCCC)CCCCCCCCCC)C(=O)OCC(CCCCCCCC)CCCCCCCCCC` (stereo partly drawn) [lauroylglutamic acid octyldodecyl diester], in data set [1], the Clean feeling entry was “Δ (when the average value was at least 0.5 and less than 1.0, it was rated as Δ)”; the Smoothness result is “Δ (when the average value was at least 0.5 and less than 1.0, it was rated as Δ)”; the Stickiness entry is “Δ (when the average value was at least 0.5 and less than 1.0, it was rated as Δ)”.

In the case of `CCCCCCCCCCCC(=O)N(C)CC(=O)OCC(CCCCCCCC)CCCCCCCCCC` (stereo not drawn) [Reference Synthesis Example 2, N-lauroylsarcosine octyl dodecyl ester, reference compound], in data set [2], the “Heavy feeling: sticky” value is 3 number of persons and the “Heavy feeling: wet” value is listed as 2 number of persons.

As to `CCCCCCCCCCCC(=O)N[C@@H](C)C(=O)OC(C)(C)C` [Synthesis Example 10, N-lauroyl alanine t-butyl ester], the “Heavy feeling: wet” value in data set [2] is reported as 1 number of persons.

Take `CCCCCCCCCCCC(=O)N(C)CCC(=O)OC(C)C` [Synthesis Example 15, N-lauroyl-N-methyl-β-alanine isopropyl ester]: in data set [2], the “Heavy feeling: wet” value is 1 number of persons and the “Light feeling: dry” value was 2 number of persons.

On to `CCCCCCCCCCCC(=O)N[C@@H](C)C(=O)OC(C)C` [Synthesis Example 17, N-lauroyl alanine isopropyl ester], for which the “Light feeling: dry” value in data set [2] is on record as 1 number of persons. Further, the Conditioning property result in data set [3] is “∘∘ (When the average value was between 1.0 and 2.0, it was rated as very good (∘∘))”.

As to `CCCCCCCCCCCC(=O)N[C@@H](C)C(=O)OCC(CCCCCCCC)CCCCCCCCCC` (stereo partly drawn) [Reference Synthesis Example 3, N-lauroyl alanine octyldodecyl ester, reference compound], in data set [2], the “Heavy feeling: sticky” value is recorded as 4 number of persons and the “Heavy feeling: wet” value was 1 number of persons. In addition, in data set [4], the Adaptability entry was “Δ (when the average value was at least −1.0 and less than 0.5, it was rated as bad (Δ))”; the Clean feeling result is “Δ (when the average value was at least −1.0 and less than 0.5, it was rated as bad (Δ))”; the Extensibility entry is “Δ (when the average value was at least −1.0 and less than 0.5, it was rated as bad (Δ))”; the Smoothness entry was “Δ (when the average value was at least −1.0 and less than 0.5, it was rated as bad (Δ))”. Further, the Conditioning property entry in data set [3] was “Δ (when the average value was at least −1.0 and less than 0.5, it was rated as bad (Δ))”.

On to `CCCCCCCCCCCC(=O)N(C)CC(=O)OC(C)C` [Synthesis Example 14, N-laurolysarcosine isopropyl ester], for which the “Light feeling: dry” value in data set [2] was 4 number of persons. Also, the Conditioning property result in data set [3] was “∘ (when the average was at least 0.5 and less than 1.0, it was rated as good (∘))”.

For the compound `CCCCCCCCCCCCCCCCCC(=O)N[C@@H](C)C(=O)OCCCCCCCC` [Synthesis Example 8, N-stearoyl alanine octyl ester], in data set [3], the Conditioning property result is “∘ (when the average was at least 0.5 and less than 1.0, it was rated as good (∘))”.

As to `CCCCCCCCCCCCCC(=O)OC(C)C` [isopropyl myristate], in data set [1], the Extensibility entry was “Δ (when the average value was at least 0.5 and less than 1.0, it was rated as Δ)”; the Smoothness result was “Δ (when the average value was at least 0.5 and less than 1.0, it was rated as Δ)”. For the same compound, in data set [4], the Adaptability entry was “Δ (when the average value was at least −1.0 and less than 0.5, it was rated as bad (Δ))”; the Extensibility entry is “Δ (when the average value was at least −1.0 and less than 0.5, it was rated as bad (Δ))”; the Smoothness result was “Δ (when the average value was at least −1.0 and less than 0.5, it was rated as bad (Δ))”. Also, the Conditioning property result in data set [3] is “Δ (when the average value was at least −1.0 and less than 0.5, it was rated as bad (Δ))”.

Regarding `CCCCCCCCCCCCCC(=O)NCC(=O)OCCCCCCCC` [Synthesis Example 7, N-myristoyl glycine octyl ester], the Conditioning property entry in data set [3] is “∘ (when the average was at least 0.5 and less than 1.0, it was rated as good (∘))”.

Turning to `CCCCCCCCCCCC(=O)N[C@@H](C)C(=O)OCC` [Synthesis Example 9, N-lauroyl alanine ethyl ester], the “Light feeling: dry” value in data set [2] is 1 number of persons.

With `CCCCCCCCCCCC(=O)N(C)CC(=O)OCCCCCCCCCCCCCCCC(C)C` [Reference Synthesis Example 1, N-lauroylsarcosine isostearyl ester], in data set [1], the Adaptability entry is “Δ (when the average value was at least 0.5 and less than 1.0, it was rated as Δ)”; the Clean feeling result is “Δ (when the average value was at least 0.5 and less than 1.0, it was rated as Δ)”; the Extensibility entry was “Δ (when the average value was at least 0.5 and less than 1.0, it was rated as Δ)”; the Smoothness result was “Δ (when the average value was at least 0.5 and less than 1.0, it was rated as Δ)”. Further, the Stickiness entry in data set [1] was “Δ (when the average value was at least 0.5 and less than 1.0, it was rated as Δ)”. Further, in data set [2], the “Heavy feeling: sticky” value is reported as 2 number of persons and the “Heavy feeling: wet” value is given as 2 number of persons.

Regarding `CCCCCCCC(=O)NCC(=O)OC(C)C` [Synthesis Example 1, N-octanoylglycine isopropyl ester], in data set [2], the “Light feeling: dry” value was 1 number of persons.
